These are yes or no findings as the source states them, for the method shown. In cells and extracts the contact can be indirect. Some results given as binding are weak or reduced against the parent protein; the word gives no strength.
Target: von Hippel-Lindau protein (pVHL) (human (endogenous in Y79)) (UniProt P40337)
Assay: co-IP; Y79 cells transfected with Flag-MDM2 plasmid or empty vector for 24 h, lysed in IP Lysis Buffer with protease inhibitors; pre-cleared with Dynabeads Protein G; endogenous pVHL precipitated with anti-pVHL antibody or control IgG on Dynabeads, 1 h at room temperature; washed 3 times with PBST; MDM2 detected by western blot

Amino acid sequences for entries named in this document (tags omitted).
UniProt P40337: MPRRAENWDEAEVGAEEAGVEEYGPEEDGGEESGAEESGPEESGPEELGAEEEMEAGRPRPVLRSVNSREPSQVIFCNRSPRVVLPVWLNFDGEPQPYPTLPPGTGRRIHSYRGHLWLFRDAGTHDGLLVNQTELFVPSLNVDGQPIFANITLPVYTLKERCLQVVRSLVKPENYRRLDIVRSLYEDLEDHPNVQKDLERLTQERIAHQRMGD
UniProt Q00987: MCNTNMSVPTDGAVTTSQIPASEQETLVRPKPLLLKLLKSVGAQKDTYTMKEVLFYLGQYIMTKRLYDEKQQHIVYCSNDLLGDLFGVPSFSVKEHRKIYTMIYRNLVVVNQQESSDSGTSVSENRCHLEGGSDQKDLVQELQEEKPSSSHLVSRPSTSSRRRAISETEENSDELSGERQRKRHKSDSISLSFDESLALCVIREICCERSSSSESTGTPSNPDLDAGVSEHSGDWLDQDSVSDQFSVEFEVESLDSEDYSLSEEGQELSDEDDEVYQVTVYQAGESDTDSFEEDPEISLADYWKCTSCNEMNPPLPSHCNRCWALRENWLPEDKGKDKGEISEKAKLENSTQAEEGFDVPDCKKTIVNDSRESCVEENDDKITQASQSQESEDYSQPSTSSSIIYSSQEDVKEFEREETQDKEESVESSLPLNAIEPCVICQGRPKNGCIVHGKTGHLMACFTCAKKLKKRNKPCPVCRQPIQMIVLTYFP

“Flag-tagged human MDM2 (Mouse double minute 2 homolog) (from UniProt Q00987 1-491)” was tested, and the binding was “binds”.
